In doi:10.1101/2020.05.19.104463:

Molecular target: T1, GFP-RAB13 (wild type) (human) (UniProt P51153)
T1 sequence: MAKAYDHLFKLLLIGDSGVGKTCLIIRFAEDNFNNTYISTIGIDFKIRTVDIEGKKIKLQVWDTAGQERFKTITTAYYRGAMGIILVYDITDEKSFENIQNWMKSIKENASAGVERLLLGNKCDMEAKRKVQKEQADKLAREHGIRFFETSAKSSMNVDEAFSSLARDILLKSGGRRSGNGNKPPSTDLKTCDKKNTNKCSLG
Assay: co-IP

- binding: binds
Substance: RabGDI (human (endogenous in MDA-MB-231))

Results are given in words; binding and its absence hold for the method and conditions named. Binding seen in cells or lysates may run through a third protein. Binding can be weak; no strength is given. Sequences can lack the tags named with a protein.
